# Experimental data as given in patent US20100125052A1.
# Sequences of proteins named here, by UniProt entry; tags and fusion partners are left off. A change or cut given only in a name is not applied to a line headed by its entry.
# UniProt P00742: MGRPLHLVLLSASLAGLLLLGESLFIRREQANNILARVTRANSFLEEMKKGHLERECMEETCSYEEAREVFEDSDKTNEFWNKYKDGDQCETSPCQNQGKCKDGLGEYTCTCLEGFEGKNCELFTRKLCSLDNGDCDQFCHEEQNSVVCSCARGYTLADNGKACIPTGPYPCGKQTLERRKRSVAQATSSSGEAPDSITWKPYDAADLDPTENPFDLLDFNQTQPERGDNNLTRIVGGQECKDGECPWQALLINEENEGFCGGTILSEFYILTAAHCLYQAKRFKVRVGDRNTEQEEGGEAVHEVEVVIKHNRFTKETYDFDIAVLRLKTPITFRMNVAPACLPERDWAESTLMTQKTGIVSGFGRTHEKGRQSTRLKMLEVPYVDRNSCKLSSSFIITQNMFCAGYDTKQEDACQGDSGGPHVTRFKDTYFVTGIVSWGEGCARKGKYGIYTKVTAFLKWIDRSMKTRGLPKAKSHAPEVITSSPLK
# These are yes or no findings as the source states them, for the method shown. Some binding calls cover weakened binding; strength is not graded here.
# B1: soybean trypsin inhibitor-agarose (STI-Agarose, Sigma Catalog #T0637) (protein, UniProt P01070 25-205, looked up)
# chain: DFVLDNEGNPLENGGTYYILSDITAFGGIRAAPTGNERCPLTVVQSRNELDKGIGTIISSPYRIRFIAEGHPLSLKFDSFAVIMLCVGIPTEWSVVEDLPEGPAVKIGENKDAMDGWFRLERVSDDEFNNYKLVFCPQQAEDDKCGDIGISIDHDDGTRRLVVSKNKPLVVQFQKLDKESL
# modifications: coupled to agarose
# Biological target: r-Antidote (recombinant antidote; human factor Xa triple mutant after removal of the -RKRRKR- linker) (human) (UniProt P00742)
# Experiment: affinity chromatography of conditioned medium on immobilised soybean trypsin inhibitor
binder,measurement,value
B1,binding,binds
